{
  "sequences": {"note": "The chains behind the UniProt entries cited, without tags or fusion partners. Where a name states a change or a piece, a line headed by the entry shows the natural chain unless it says otherwise. A line that says so, or that is headed by a name, gives the form on record, which may keep a tag or linker.", "4-1BB(24-180)-His重组蛋白 (4-1BB胞外段24-180位氨基酸, C端6个His) (Q07011, form named)": "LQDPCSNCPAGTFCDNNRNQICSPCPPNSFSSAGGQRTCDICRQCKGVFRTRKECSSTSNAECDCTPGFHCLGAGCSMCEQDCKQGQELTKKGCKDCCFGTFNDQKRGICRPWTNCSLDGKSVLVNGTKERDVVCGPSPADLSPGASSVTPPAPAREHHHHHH"},
  "source": "patent CN111484554A",
  "binders": {"B1": {"name": "11B6抗体 (鼠源4-1BB单克隆抗体) (antibody, mouse IgG1, kappa, V domains shown)", "VH": "QVQLQQPGAELVRPGASVKLSCKASGYTFTSYWINWVKQRPGQGLEWIGNIYPSDSYTNYNQKFKDKATLTVDKSSSTAYMQLSSPTSEDSAVYYCTRESQTGTGYYAMDYWGQGTSVTVSS", "VL": "DIQMTQTTSSLSASLGDRVTISCRASQDISNYLNWYQQKPDGTVKLLIYYTSRLHSGVPSRFSGSGSGTDYSLTISNLEQEDIATYFCQQGNTLPWTFGGGTKLEIKR"}},
  "biological_target": "4-1BB(24-180)-His重组蛋白 (4-1BB胞外段24-180位氨基酸, C端6个His) (UniProt Q07011)",
  "assay": "ELISA, hybridoma supernatant on coated 4-1BB monomer (300 ng/well)",
  "note": "No constants are given. Whether binding was seen depends on the method and setting. Some results given as binding are weak or reduced against the parent protein; the word gives no strength.",
  "data": [
    {"binder": "B1", "values": [
      {"measurement": "binding", "value": "binds"}
    ]}
  ]
}
